PMC7094076
No constants are given. Whether binding was seen depends on the method and setting. Binding can be weak; no strength is given. For some of these results: Tags and fused reporters may be left off the sequences shown. For some of these results: Binding seen in cells or lysates may run through a third protein. One block for each substance: values may come before it.

By UniProt entry, the sequences of proteins in these tests, tags left out. Where a name states a change or a piece, a line headed by the entry shows the natural chain unless it says otherwise.
UniProt F4JZD0: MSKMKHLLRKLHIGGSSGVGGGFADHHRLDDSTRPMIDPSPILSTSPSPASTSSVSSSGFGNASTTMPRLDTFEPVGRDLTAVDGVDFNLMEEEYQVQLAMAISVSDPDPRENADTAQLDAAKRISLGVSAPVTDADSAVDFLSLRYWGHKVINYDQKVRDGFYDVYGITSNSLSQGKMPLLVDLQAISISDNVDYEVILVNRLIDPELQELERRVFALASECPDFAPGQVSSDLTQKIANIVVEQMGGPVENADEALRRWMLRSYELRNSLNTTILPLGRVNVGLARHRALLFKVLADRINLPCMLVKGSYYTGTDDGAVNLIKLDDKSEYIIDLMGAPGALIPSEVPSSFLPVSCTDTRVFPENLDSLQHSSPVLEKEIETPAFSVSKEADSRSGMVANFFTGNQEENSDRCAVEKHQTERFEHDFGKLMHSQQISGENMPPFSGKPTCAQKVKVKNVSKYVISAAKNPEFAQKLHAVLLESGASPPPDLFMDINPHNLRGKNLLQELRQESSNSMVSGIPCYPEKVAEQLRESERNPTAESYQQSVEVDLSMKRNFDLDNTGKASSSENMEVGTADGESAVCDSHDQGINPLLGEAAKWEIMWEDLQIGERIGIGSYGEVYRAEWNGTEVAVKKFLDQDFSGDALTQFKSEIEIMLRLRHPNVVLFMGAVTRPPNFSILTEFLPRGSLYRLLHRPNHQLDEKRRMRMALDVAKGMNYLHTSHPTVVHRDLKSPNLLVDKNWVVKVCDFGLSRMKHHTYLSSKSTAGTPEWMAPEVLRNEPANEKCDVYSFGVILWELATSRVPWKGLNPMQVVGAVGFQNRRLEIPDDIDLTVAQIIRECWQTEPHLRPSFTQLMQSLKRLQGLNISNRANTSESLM

What was measured:
[1] = target: T1, MKK1 (yeast two-hybrid fusion in pGBKT7) (Arabidopsis) (UniProt Q94A06); assay: two-hybrid; MKKs in pGBKT7, MKD1 and MPKs in pGADT7, yeast strain Y190; β-galactosidase activity measured in diploids
T1 sequence: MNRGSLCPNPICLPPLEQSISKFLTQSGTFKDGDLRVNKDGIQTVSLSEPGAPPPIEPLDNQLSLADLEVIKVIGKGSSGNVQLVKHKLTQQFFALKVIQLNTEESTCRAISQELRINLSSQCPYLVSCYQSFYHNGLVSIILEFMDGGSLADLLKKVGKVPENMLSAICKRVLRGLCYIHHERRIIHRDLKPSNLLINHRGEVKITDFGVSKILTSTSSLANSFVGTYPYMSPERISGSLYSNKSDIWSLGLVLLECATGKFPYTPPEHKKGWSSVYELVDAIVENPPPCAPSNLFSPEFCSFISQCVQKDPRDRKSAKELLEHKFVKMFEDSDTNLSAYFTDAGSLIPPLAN

[2] = target: T2, MKK5 (yeast two-hybrid fusion in pGBKT7) (Arabidopsis) (UniProt Q8RXG3); assay: as above
T2 sequence: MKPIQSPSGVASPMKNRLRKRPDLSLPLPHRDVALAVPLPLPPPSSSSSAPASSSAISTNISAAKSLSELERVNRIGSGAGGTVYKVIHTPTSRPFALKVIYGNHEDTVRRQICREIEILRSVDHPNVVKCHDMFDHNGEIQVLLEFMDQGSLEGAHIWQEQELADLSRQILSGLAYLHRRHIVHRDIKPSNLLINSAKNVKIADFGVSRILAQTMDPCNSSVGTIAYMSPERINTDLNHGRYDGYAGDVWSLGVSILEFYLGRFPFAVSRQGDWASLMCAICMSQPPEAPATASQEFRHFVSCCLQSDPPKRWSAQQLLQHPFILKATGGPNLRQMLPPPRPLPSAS

[3] = target: T3, MKK2 (yeast two-hybrid fusion in pGBKT7) (Arabidopsis) (UniProt Q9S7U9); assay: as above
T3 sequence: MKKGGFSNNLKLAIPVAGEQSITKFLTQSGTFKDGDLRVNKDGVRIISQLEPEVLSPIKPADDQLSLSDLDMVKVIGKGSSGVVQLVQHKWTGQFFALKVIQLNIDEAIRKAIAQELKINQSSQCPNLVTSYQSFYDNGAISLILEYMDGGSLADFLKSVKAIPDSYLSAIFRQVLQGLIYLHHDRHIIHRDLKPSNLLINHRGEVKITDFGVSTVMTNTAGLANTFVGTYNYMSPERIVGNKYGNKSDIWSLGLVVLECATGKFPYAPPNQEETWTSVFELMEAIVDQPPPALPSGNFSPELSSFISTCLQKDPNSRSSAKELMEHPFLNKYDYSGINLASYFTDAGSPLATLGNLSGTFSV

YFPN–MKK1 (Arabidopsis) = target: T4, YFPN–MKK1 (Arabidopsis) (UniProt Q94A06); assay: split reporter; BiFC in transgenic Arabidopsis plants: YFPN fusion plants pollinated with YFPC–MKD1 plants, grown on MS medium for 10 d; YFP signal by microscopy (root tip)
T4 sequence: T1 sequence

YFPN–MKK2 (Arabidopsis) = target: T5, YFPN–MKK2 (Arabidopsis) (UniProt Q9S7U9); assay: as above
T5 sequence: T3 sequence

[4] = target: T6, AtNFXL1 fused to YFPN (BiFC, transgenic Arabidopsis) (Arabidopsis) (UniProt Q9SY59); assay: as above
T6 sequence: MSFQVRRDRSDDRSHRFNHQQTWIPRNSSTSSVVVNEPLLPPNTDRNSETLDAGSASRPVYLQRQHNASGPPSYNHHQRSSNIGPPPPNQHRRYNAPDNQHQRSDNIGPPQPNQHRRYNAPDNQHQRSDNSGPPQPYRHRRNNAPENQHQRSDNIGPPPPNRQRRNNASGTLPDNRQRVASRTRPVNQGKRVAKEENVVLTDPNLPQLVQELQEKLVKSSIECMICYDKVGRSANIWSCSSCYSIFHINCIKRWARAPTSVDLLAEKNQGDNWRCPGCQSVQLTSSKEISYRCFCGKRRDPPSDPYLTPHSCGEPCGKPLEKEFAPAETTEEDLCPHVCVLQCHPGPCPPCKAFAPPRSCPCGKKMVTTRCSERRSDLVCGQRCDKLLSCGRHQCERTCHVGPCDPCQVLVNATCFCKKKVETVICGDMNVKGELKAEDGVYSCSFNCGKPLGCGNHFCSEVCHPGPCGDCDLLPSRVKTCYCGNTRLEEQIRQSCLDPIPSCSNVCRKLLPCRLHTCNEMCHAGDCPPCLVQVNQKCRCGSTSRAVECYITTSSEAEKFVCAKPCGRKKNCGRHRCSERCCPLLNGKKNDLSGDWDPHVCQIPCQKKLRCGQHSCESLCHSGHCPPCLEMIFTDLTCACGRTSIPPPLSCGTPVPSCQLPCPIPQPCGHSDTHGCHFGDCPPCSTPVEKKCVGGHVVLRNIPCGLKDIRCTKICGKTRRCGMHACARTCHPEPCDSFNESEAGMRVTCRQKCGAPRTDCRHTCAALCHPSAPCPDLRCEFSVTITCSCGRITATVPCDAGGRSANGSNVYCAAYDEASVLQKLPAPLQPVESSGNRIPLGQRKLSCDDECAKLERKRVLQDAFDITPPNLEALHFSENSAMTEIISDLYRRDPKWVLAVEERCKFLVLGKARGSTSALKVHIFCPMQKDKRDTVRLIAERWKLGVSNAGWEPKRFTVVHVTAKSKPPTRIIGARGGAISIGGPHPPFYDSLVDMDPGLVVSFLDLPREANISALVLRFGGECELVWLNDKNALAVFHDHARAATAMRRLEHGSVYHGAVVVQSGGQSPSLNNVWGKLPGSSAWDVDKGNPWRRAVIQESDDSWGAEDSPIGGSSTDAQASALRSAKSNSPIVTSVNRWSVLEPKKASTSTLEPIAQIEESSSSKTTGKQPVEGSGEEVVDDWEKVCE

YFPN–MKK5 (Arabidopsis) = target: T7, YFPN–MKK5 (Arabidopsis) (UniProt Q8RXG3); assay: as above
T7 sequence: T2 sequence

[5] = target: T8, MKK2 (split Venus fusion, BiFC in onion epidermis) (Arabidopsis) (UniProt Q9S7U9); assay: split reporter; BiFC with split monomeric Venus (binary V10-BiFC vectors), transient, biolistic bombardment of onion epidermal cells
T8 sequence: T3 sequence

[6] = target: T9, MKK1 (split Venus fusion, BiFC in onion epidermis) (Arabidopsis) (UniProt Q94A06); assay: as above
T9 sequence: T1 sequence

[7] = target: T10, MKK5 (split Venus fusion, BiFC in onion epidermis) (Arabidopsis) (UniProt Q8RXG3); assay: as above
T10 sequence: T2 sequence

binding [1]: binds weakly
binding [2]: no binding
binding [3]: binds weakly
Substance: kinase domain of MKD1 (yeast two-hybrid fusion in pGADT7) (Arabidopsis) (domain or fragment)

binding (YFPN–MKK1 (Arabidopsis)): binds
binding (YFPN–MKK2 (Arabidopsis)): binds
binding [4]: binds
binding (YFPN–MKK5 (Arabidopsis)): binds
Substance: YFPC–MKD1 (Arabidopsis)

binding [5]: binds
binding [6]: binds
binding [7]: binds
Substance: MKD1 (split Venus fusion, BiFC in onion epidermis) (from UniProt F4JZD0)

binding [1]: binds
binding [2]: binds
binding [3]: binds
Substance: full-length MKD1 (yeast two-hybrid fusion in pGADT7) (from UniProt F4JZD0)
